Data reported in patent US20260133193A1, “COMPOSITIONS AND METHODS FOR TREATING INFLAMMATORY DISEASES” (University of Washington, priority 2018, published 2026).
For at least one compound, name, drawing or mass did not settle the structure.

Tests used:
Type in all cases: cell-based, human
[1] = tested on: ncf1 (p47 phox); assay: p47 phox (ncf1) S345 phosphorylation, phosphoproteomics and Western blot; details: LY294002 pre-treatment
Experimental: Another target of TLR7/8 stimulation was ncf1 (p47 phox). Ncf1 was phosphorylated at S345, a known target site involved in activation of the NADPH oxidase complex. […] The experiment was repeated three times; combined results were compared using paired t test (P=0.044). Neutrophils were incubated with R848 in the absence or presence of the PI3K inhibitor Ly294002 and analyzed for pS345 or total levels of p47 phox using Western Blot. The experiment was repeated four times; combined results were compared using paired t test (No stim, P=0.03; R848+LY294002, P=0.0011). […] Briefly, neutrophils were treated with inhibitors of NADPH oxidase prior to addition of R848 and analyzed for cell surface expression of FcgRIIA by flow cytometry. […] Briefly, neutrophils from healthy individuals (HV, n=18) and CGD patients (n=4) were stimulated with R848 and analyzed for FcgRIIA levels by flow cytometry. The data were analyzed using paired t test (HC, P<0.0001) and unpaired t test (HC vs CGD, P=0.0097). Neutrophils from healthy individuals (HV, n=13) and CGD patients (n=3) were activated by R848 and analyzed for CD66b expression by flow cytometry using paired t test (HC, P<0.0001; CGD, P=0.039). […] Briefly, neutrophils were activated with LPS or PAM3CSK4 in presence of DPI and analyzed for FcgRIIA levels by flow cytometry. […]

[2] = tested on: neutrophils; assay: ROS analysis in neutrophils (DHR123, OxyBURST); details: LY294002 10 μM pre-treatment
[3] = tested on: FcgRIIA on neutrophils; assay: FcgRIIA shedding, flow cytometry of neutrophil cell surface FcgRs; details: agent added before R848; flow cytometry IV.3
Text: To determine the mechanism for the TLR-induced reduction in RNP-IC phagocytosis, we analyzed the neutrophil surface expression of FcgRs after exposure to TLR ligand. Neutrophils were activated with R848 and cell surface expression of FcgRs analyzed by flow cytometry. The results were presented as FcgR levels as compared to no R848 added (% of control). The experiment was repeated five (FcgRI), seven (FcgRIII), and twenty-five (FcgRIIA) times; combined results were compared using paired t test (FcgRIIA, P<0.0001; FcgRI, P=0.027; FcgRIII, P=0.0044). […] In this experiment, neutrophils were activated with the TLR7/8 agonist R848 and analyzed for FcgRIIA at different time-points and concentrations. The experiment was repeated four (concentration) and six (kinetics) times; combined results were compared using paired t test (30 min, P=0.0158; 60 min, P<0.0001; 120 min, P=0.0003; 0.125 μg/mL, P=0.0071; 0.25 μg/mL, P=0.0058; 0.5 μg/mL, P=0.0008; 1 μg/mL, P<0.0001; 2 μg/mL, P<0.0001). […] For these experiments, neutrophils were activated with TLR ligands (LPS, 1 μg/mL, PAM3CSK4 (5 μg/mL), CpG DNA (2 μg/mL), Loxoribine (0.1 mM), CL075 (2.5 μg/mL) or R848 (2 μg/mL)) for 60 minutes or 4 hours and analyzed for FcgRIIA, FcgRII or CD11b and CD66b cell surface expression by flow cytometry. […]

O=c1cc(N2CCOCC2)oc2c(-c3ccccc3)cccc12 [LY294002]
abrogated: effect on R848-induced phosphorylation of ncf1 at S345 [1] | effect on TLR (R848)-mediated ROS generation [2] | effect on R848 (TLR7/8)-mediated shedding of FcgRIIA on neutrophils [3]
